Test results taken from PubChem BioAssay AID1259415 (National Center for Advancing Translational Sciences (NCATS), 2018).
Values joined by “and” are separate entries in the source; they are usually repeats but may differ in a detail not shown here. Identical values can stand only once. About 18,000 (4.4%) of roughly 410,000 compounds were called active. This list was built around the results that the source calls inconclusive (neither active nor inactive); the mix of calls is not that of the screen. No stated cut-off is given here; in the data, active means activity change below about -60%; inconclusive means no clear call, values can overlap the other calls; inactive means above about -39%. The source holds several records for some structures; these can differ, active in one and inactive in another.

Assay: qHTS Assay for inhibitors of the human cytomegalovirus (HCMV)
Details: HFF cells, HCMV-luciferase reporter, 72 h; at 57.5 µM; active compounds read low
In short: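 Screen run at 2 compound doses on HFFs infected with reporter HCMV, MOI 1 PFU/cell. Luciferase activity from cell lysates at 72 h post infection gave inhibition relative to buffer-only and Salinomycin wells.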
On the % scale 0 is the no-effect control and ±100 the full control effect.

SMILES	activity change, negative = inhibition
Cc1sc(NC(=O)Cc2ccc3c(c2)OCO3)nc1-c1ccc2c(c1)CCN2C(=O)c1cccc(F)c1	inconclusive: -40.3%
O=C(O)CCN1CC2([N+](=O)[O-])C=CC(=O)C([N+](=O)[O-])(C1)C2CC(=O)c1ccccc1 (stereo not given)	inconclusive: -51.5%
COc1cc(O)c(C(C)=O)c(OC)c1	inconclusive: -56.6%
O=C(NCC(c1ccco1)N1CCCC1)c1cn(-c2ccccc2)nc1-c1ccc(F)cc1 (stereo not given)	inactive: -13.6%
Cc1ccn2c(CC(C)(C)C)c(-c3ccc(F)cc3)nc2c1	inactive: -3.25%
Cc1ccc(NC(=O)CN(C)CC(=O)Nc2ccccc2-c2ccccc2)cc1	inactive: -3.74%
CC1(OC(=O)c2cccs2)C(=O)C=C2C=C(C3CC3)OC=C2C1=O (stereo not given)	inconclusive: -41.2%
O=C(NCc1cccs1)C1CCN(C(=O)N2CCOc3ccc(Cl)cc32)CC1	inactive: -4.96%
O=C(NN=C1CCCC1)c1ccccc1OCc1ccc(Cl)cc1	inconclusive: -40.6%
CC(C)(C)OC(=O)N(CCc1ccccc1)Cc1ccccc1OCc1cccc(NC(=O)C2CCC2)c1	inconclusive: -43.7%
CC(C)C[C@@H](CO)NS(=O)(=O)c1cc(Cl)ccc1F	inactive: 20.6%
COc1ccc2cc(C(c3nnnn3Cc3ccccc3)N3CCCCCC3)c(=O)[nH]c2c1 (stereo not given)	inactive: -29.1%
CC(=O)N1CCc2cc(S(=O)(=O)NC(Cc3ccccc3)C(=O)NCc3ccc(C)cc3)ccc21 (stereo not given)	inactive: -12.2%
COc1cc(C(=O)Nc2cccc3cccnc23)cc(OC)c1OC	inactive: -12.4%
CC(=O)Nc1ccc(NC(=O)CCCN2C(=O)C(c3ccccc3)Oc3cccnc32)cc1 (stereo not given)	inactive: 19%
O=C(/C(=C/O)N=Nc1ccccc1)c1cccs1	inconclusive: -43.7%
CN(C)c1ccnc2sc3c(NCC(O)CO)ncnc3c12 (stereo not given)	inconclusive: -47.1%
Nc1ccc(S(=O)(=O)O)cn1	inconclusive: -43.2%
Cc1nc(C(=O)NNC(=O)c2ccc(Cl)cc2)cs1	active: -101%
CCOc1ccccc1C(=O)Oc1cc(C)[nH]c(=O)c1[N+](=O)[O-]	inactive: 21.1%
CCOC(=O)N1CCN(C(=O)C2CCCN(S(=O)(=O)c3ccc(OCC)cc3)C2)CC1 (stereo not given)	inconclusive: -52.8%
Cn1c(NCCO)nc2c1c(=O)n(Cc1ccc(F)cc1)c(=O)n2C	inconclusive: -49.1%

SMILES	activity change, negative = inhibition
Cc1ccc(-c2csc(=Nc3cccnc3)n2CCCn2ccnc2)cc1C	active: -94.7%
Cc1ccc(C)c(CN2CCC(CNC(=O)Nc3ccc(F)c(Cl)c3)CC2)c1	inconclusive: -52.2%
CCn1c(C(=O)NCc2cc(Br)ccc2OC)cc2oc3ccccc3c21	inconclusive: -47.3%
Cc1ccc(NC(=O)c2ccccc2Cl)c(Cl)c1	inactive: 32%
Cc1ccc(NC(=O)c2cnc(N3CCN(c4ccccn4)CC3)c3ccccc23)c(Br)c1	active: -69.9%
Cc1ccccc1-c1nnc(SCC(=O)N(C)C2CCCCC2)o1	inconclusive: -49.4%
COC(=O)C(NC(=O)c1ccco1)(Nc1nc(C2CC2)cs1)C(F)(F)F (stereo not given)	active: -66.9%
CCOC(=O)c1sc2nc(CSc3ccccc3)nc(N3CCCN(C)CC3)c2c1C	inconclusive: -52.8%
CCCNC(=O)c1sc2c(c1C(=O)Nc1ccccn1)CCCC2	inconclusive: -45.4%
COC(=O)c1c(C)[nH]c(C(=O)C(C)OC(=O)c2cc(C)oc2C)c1C (stereo not given)	inconclusive: -54.8%
C/C(=N\NC(=O)CN(c1ccccc1)S(=O)(=O)c1ccccc1[N+](=O)[O-])C(C)(C)C	active: -62.9%
O=C(Nc1ccc(S(=O)(=O)NCc2ccccc2)cc1)c1ccc(Br)o1	inconclusive: -54.9%
COc1ccc(CCC(=O)N2CCN(S(=O)(=O)c3ccc4ccccc4c3)CC2)cc1	inactive: -35%
CCOc1ccc(C(C)=O)cc1CSc1nnnn1-c1ccc(O)cc1	inactive: -1.13%
CCS(=O)(=O)N1CCN=C1SCc1ccc(F)cc1	inconclusive: -47.4%
CCc1ccc(C(C(=O)NCc2ccccc2)N(C(=O)c2csnn2)C2CC2)cc1 (stereo not given)	inconclusive: -49.2%
O=C(N/N=C\c1ccc([N+](=O)[O-])s1)c1cncc(Br)c1	active: -100%
NS(=O)(=O)c1cccc(NC(=O)c2ccc(S(=O)(=O)N3CCCCCC3)cc2)c1	inconclusive: -40.5%
COc1ccc(C)cc1N/C(N)=N/c1nc(C)cc(C)n1	inconclusive: -59.3%
CC(C)N(Cc1nc(-c2ccc(Cl)cc2)no1)C(=O)/C=C/c1ccccc1	inconclusive: -59.3%
Cc1ccc(NC(=O)c2ccc(NC(=O)c3ccccc3)cc2)cc1C	inconclusive: -40%
Cc1cccc(NC(=S)NC2CC3CCCC(C2)N3Cc2ccccc2)c1C (stereo not given)	inconclusive: -55.8%

SMILES	activity change, negative = inhibition
COC(=O)c1ccccc1CC1SC(N)=NC1=O (stereo not given)	inconclusive: -44.8%
COc1ccccc1NC(=S)N(Cc1ccco1)Cc1cc2cc(C)cc(C)c2[nH]c1=O	inconclusive: -40.7%
Fc1ccc(NC(=S)NC2CCCCC2)c(F)c1F	inconclusive: -59.6%
Cc1cc(=O)[nH]c(N/N=C/c2cc(C)n(CC(F)(F)F)c2C)n1	inconclusive: -50.7%
Cc1ccccc1NC(=O)CSc1cn(CC(=O)N(C(C)C)C(C)C)c2ccccc12	inconclusive: -44.8%
Nc1ncncc1-c1ccc2ccccc2c1	active: -74.6%
CCCCNS(=O)(=O)c1ccc(Br)cc1N1CCC[C@H]1CO	inactive: 10.4%
CC(C)c1ccc(NC2=NCC(=O)N2Cc2cccs2)cc1	active: -60.4%
CC1CCN(CCCCOc2ccc(C(C)(C)C)cc2)CC1	inconclusive: -42.6%
CCC(C)[C@H](NC(=O)c1cn(CC)c2cc3c(cc2c1=O)OCO3)C(=O)NCCCn1ccnc1 (stereo not given in full)	inconclusive: -44.7%
COc1ccc(-c2cc(C)no2)cc1S(=O)(=O)N1CCN(c2ccccc2F)CC1	inconclusive: -41% and inconclusive: -43.4%
CCOc1cc(CNc2ccc(N3CCN(C(C)=O)CC3)cc2)cc(Br)c1OC	inconclusive: -41.5%
Cc1nc2c(-c3ccc(F)cc3)c(C)nn2c(C)c1CCC(=O)NCc1ccco1	inactive: -13.3%
CCOc1ccc(/C=C2\SC(=S)N(CC(=O)N(CCO)C(C)(C)C)C2=O)cc1	inconclusive: -52.8%
COC(=O)c1cc(C)nc2c1c(C)nn2-c1ccccc1	inconclusive: -41.3%
O=C(CN(Cc1ccc(Br)cc1)S(=O)(=O)c1ccccc1)NCC1CCCO1 (stereo not given)	inconclusive: -56.6%
Cc1ccc(NC(=O)c2ccccc2F)cc1S(=O)(=O)N1CCCCCC1	inconclusive: -41.8%
O=C(O)c1ccc(NS(=O)(=O)c2ccc3c(c2)C(=O)c2ccccc2C3=O)cc1	inactive: -32.9%
CCN(CC)S(=O)(=O)c1ccc(-c2ccc(S(=O)(=O)N(CC)CC)cc2)cc1	active: -64.2%
COc1cc(/C=N\NC(=O)c2ccc(-c3ccccc3)cc2)cc(Br)c1O	active: -68.4%
COc1ccc(OCC(=O)NC2CC(=O)N(c3ccc4c(c3)OCCO4)C2)cc1 (stereo not given)	inactive: 13.4%
CCC(=O)c1cn(Cc2ccccc2C#N)c2ccccc12	inactive: 30.2%

SMILES	activity change, negative = inhibition
COc1ccccc1CNS(=O)(=O)c1ccc(NC(C)=O)cc1	inconclusive: -43.2%
COc1cc(/C=C(/C#N)c2nc(-c3cc4ccccc4oc3=O)cs2)cc([N+](=O)[O-])c1O	active: -86.7%
Cc1cc(C(F)(F)F)nc(SCC(=O)NC2CCCCC2)n1	inconclusive: -56%
COc1ccc(C2C(C(=O)Nc3cc(OC)c(OC)c(OC)c3)c3ccccc3C(=O)N2C)cc1OC (stereo not given)	inconclusive: -40.9%
CCc1ccccc1NC(=O)N1CCc2c([nH]c3ccccc23)C1c1ccc(C)cc1 (stereo not given)	inconclusive: -48.8%
CC(=O)N1CCN(c2ncnc3ccccc23)CC1	inconclusive: -44.7%
Cc1c(NC(=O)CSc2nnc3c4ccccc4n(CCc4ccccc4)c3n2)c(=O)n(-c2ccccc2)n1C	active: -85.1%
COc1ccc(CNC(=O)[C@@H](NC(=O)C2CCN(C(=O)[C@@H](N)CC(C)C)CC2)C(C)C)cc1	inactive: 1.92%
CCOC1=C2CN(S(=O)(=O)c3ccc(C)cc3)[C@H](c3ccccc3)C[C@@H]2N(S(=O)(=O)c2ccc(Br)cc2)[C@H](c2ccccc2)C1	inconclusive: -58.8%
CCOC(=O)c1c(C)nc(C)c(C(=O)OCC)c1-c1ccc(O)c(OC)c1	inconclusive: -54.7%
CCOc1ccccc1N(CC(=O)Nc1ccccc1C(=O)N1CCCC1)S(C)(=O)=O	inconclusive: -46.4%
COc1ccccc1N1CCN(c2ncc3c(n2)CCN(Cc2ccccc2F)C3)CC1	inactive: 1.03%
Cc1ccc(C(=O)Nc2nc(COc3ccccc3)cs2)s1	active: -74.9%
COc1ccc(-c2noc(CCC(=O)Nc3ccc(C(F)(F)F)cc3)n2)cc1	inactive: -18%
CC1(C)CC2CC(C)(CN2Cc2c(O)ccc3ccccc23)C1 (stereo not given)	inconclusive: -53.6%
O=C1NCC(c2ccccc2)C1C(=O)N/N=C\c1ccc(-c2ccc(Cl)c(Cl)c2)o1 (stereo not given)	inconclusive: -42.1%
COc1cc(NC(=O)C2CC(=O)NC3=C2C(=O)CCC3)c(OC)cc1Cl (stereo not given)	inactive: 49.9%
COC(=O)/C(=N/Nc1ccccc1Cl)Sc1nnc(C(O)c2ccccc2)n1-c1ccccc1 (stereo not given)	inconclusive: -46.8%
O=C(NCCC1=CCCCC1)c1ccc2c(=O)n3nc(Nc4ccccc4)sc3nc2c1	inconclusive: -44.1%
